Experimental data reported in paper PMC3182263.
No constants are given. Whether binding was seen depends on the method and setting. In cells and extracts the contact can be indirect. Some binding calls cover weakened binding; strength is not graded here. Values belong to the molecule of their own block, whether it stands above or below them.

Amino acid sequences for entries named in this document (tags omitted). Residues count along the entry.
UniProt P23385, residues 19-1199: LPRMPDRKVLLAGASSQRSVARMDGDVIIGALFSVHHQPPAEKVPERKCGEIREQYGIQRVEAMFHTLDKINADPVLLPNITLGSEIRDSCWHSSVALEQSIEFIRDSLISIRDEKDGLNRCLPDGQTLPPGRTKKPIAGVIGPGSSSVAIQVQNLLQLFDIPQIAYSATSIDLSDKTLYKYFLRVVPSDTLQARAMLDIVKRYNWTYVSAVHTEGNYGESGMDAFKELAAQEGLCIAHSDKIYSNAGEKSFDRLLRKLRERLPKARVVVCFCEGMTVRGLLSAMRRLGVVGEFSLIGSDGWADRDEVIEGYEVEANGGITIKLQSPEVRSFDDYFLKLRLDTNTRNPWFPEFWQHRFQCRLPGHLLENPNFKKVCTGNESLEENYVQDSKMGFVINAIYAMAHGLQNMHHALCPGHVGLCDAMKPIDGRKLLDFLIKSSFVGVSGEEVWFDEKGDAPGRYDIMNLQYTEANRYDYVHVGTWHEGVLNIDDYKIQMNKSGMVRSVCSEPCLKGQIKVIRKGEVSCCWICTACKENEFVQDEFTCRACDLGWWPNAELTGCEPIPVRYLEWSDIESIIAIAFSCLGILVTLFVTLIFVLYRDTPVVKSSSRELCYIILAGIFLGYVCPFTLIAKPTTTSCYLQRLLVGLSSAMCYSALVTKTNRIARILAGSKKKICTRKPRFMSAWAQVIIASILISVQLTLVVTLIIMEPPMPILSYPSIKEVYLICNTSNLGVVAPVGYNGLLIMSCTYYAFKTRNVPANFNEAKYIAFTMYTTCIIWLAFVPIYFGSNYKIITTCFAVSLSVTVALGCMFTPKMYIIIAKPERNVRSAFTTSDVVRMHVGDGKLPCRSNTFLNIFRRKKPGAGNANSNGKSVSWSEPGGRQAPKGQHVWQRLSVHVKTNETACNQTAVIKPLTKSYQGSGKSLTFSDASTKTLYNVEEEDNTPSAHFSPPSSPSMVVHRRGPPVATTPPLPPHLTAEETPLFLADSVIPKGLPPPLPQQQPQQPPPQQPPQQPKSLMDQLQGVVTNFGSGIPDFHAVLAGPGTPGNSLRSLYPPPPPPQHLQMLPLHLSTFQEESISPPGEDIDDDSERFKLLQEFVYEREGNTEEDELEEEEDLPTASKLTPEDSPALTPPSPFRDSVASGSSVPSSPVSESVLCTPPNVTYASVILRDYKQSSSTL
UniProt Q9Z0U4, residues 20-960: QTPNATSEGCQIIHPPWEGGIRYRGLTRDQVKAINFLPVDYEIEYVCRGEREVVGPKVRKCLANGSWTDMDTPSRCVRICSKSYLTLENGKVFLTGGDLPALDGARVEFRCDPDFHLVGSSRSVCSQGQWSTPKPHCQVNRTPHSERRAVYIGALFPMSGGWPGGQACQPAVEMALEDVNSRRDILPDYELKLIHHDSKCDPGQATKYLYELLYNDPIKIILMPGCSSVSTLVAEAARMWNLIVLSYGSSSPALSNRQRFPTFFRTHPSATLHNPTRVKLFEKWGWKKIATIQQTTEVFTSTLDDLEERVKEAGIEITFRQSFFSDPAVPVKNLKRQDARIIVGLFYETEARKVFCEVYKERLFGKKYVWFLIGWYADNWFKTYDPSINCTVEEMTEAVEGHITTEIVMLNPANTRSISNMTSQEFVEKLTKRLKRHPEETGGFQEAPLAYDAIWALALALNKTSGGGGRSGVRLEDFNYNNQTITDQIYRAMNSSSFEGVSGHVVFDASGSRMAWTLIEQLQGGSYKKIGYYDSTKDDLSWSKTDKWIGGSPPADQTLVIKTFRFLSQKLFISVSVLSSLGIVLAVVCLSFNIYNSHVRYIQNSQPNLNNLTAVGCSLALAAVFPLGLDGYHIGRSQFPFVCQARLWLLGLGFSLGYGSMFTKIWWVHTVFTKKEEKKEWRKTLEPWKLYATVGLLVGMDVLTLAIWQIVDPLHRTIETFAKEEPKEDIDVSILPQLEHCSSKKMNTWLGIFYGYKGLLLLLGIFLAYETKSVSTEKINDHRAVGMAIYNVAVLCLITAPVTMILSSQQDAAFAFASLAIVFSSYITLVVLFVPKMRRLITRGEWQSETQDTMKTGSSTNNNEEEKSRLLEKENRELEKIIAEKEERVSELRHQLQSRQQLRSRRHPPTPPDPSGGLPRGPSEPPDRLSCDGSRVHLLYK

Legend:
[1] = target: T1, GABAB receptor subunit 2 (GABAB-R2) (rat (endogenous in hippocampus)) (UniProt O88871); assay: co-IP; hippocampal tissue lysate from normally sleeping and 12 h sleep-deprived rats; pellet solubilised in RIPA buffer (150 mM NaCl, 50 mM Tris-HCl, 1% Nonidet P-40, 0.1% SDS, 0.5% sodium deoxycholate, pH 8.0); antibody overnight at 4°C, protein A/G-agarose beads; 7% SDS gel, blotted for GABAB-R1 or GABAB-R2
T1 sequence: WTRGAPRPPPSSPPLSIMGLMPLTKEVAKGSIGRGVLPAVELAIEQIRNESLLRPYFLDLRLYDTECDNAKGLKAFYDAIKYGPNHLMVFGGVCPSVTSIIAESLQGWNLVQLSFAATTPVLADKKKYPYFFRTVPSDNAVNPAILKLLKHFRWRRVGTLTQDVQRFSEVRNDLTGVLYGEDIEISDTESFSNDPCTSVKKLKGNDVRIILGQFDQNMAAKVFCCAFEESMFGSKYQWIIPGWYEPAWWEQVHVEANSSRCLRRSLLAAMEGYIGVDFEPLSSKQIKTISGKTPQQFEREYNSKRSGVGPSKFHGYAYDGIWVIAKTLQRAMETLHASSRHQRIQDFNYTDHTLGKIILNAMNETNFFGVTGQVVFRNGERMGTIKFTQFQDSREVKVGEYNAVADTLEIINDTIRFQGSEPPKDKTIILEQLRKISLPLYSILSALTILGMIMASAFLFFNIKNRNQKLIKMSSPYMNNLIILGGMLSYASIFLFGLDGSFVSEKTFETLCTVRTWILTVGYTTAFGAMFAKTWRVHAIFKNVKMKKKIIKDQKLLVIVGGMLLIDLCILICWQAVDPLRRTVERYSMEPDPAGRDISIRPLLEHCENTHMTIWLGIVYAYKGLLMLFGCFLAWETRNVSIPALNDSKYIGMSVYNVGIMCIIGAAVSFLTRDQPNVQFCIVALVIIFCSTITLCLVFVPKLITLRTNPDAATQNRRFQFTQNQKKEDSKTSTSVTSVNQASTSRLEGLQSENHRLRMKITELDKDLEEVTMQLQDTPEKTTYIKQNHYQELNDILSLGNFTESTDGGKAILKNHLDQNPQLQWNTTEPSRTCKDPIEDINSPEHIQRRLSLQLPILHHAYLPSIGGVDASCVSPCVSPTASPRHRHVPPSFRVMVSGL

[2] = target: metabotropic glutamate receptor 1 alpha (mGlu1αR) (rat (endogenous in hippocampus)) (UniProt P23385); assay: as above

binding [1]: binds
binding [2]: binds
Molecule: GABAB receptor subunit 1 (GABAB-R1) (from UniProt Q9Z0U4 20-960)

binding [2]: binds
B1: GABAB receptor subunit 2 (GABAB-R2) (receptor, UniProt O88871 41-940)
chain: T1 sequence
